Source: PMC3979655
Where two headings read alike, the source gives them in different places. Results are given in words; binding and its absence hold for the method and conditions named. Binding seen in cells or lysates may run through a third protein. Some binding calls cover weakened binding; strength is not graded here. Tags and fused reporters may be left off the sequences shown.

By UniProt entry, the sequences of proteins in these tests, tags left out.
UniProt Q84L31: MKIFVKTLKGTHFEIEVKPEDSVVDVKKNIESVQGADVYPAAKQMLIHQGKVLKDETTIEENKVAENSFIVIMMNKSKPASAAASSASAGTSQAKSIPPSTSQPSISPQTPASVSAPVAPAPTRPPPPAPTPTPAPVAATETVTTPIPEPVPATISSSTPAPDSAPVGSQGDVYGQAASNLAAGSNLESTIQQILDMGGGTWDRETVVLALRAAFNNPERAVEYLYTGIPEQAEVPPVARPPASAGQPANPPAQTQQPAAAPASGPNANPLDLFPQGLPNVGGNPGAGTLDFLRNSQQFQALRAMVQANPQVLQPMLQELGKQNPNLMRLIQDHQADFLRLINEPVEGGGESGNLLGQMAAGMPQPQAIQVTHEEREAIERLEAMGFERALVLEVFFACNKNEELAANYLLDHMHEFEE
UniProt Q84L30: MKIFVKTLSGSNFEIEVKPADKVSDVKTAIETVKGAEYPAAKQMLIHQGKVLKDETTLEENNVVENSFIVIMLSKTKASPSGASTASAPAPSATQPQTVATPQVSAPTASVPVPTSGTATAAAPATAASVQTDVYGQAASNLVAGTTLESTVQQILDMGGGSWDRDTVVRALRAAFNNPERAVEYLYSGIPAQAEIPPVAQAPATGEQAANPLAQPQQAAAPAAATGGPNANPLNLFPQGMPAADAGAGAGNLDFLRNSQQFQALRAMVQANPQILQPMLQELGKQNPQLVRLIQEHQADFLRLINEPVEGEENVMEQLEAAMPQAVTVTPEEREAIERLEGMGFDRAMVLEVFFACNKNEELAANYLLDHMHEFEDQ

What was measured:
[1] = target: T1, GFP–SAP54 (35S:GFP–SAP54, amino acids 34 to 124) in transgenic Arabidopsis (Aster Yellows phytoplasma strain Witches' Broom (AY-WB)) (UniProt Q2NJQ2); assay: co-IP; immunoprecipitation of GFP–SAP54 or GFP from transgenic Arabidopsis (Col-0 and rad23CD double mutant); blot with anti-RAD23
T1 sequence: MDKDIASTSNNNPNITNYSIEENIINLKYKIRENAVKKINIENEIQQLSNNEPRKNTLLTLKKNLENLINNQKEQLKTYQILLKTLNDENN

[2] = target: T1, GFP–SAP54 (35S:GFP–SAP54, amino acids 34 to 124) in transgenic Arabidopsis (Aster Yellows phytoplasma strain Witches' Broom (AY-WB)); assay: as above; remark: listed apart in the source

RAD23C (44 kDa), endogenous in Arabidopsis (from UniProt Q84L31 1-419)
binding [1]: binds

RAD23D (40 kDa), endogenous in Arabidopsis (from UniProt Q84L30 1-378)
binding [1]: binds

B1: RAD23A, endogenous in Arabidopsis (rad23CD double mutant) (protein, UniProt Q84L32 1-368)
chain: MKLTVKTLKGSHFEIRVLPTDTIMAVKKNIEDSQSKDNYPCGQQLLIHNGKVLKDETTLVENKVTEEGFLVVMLSKSKTASSAGPSSTQPTSTTTSTISSTTLAAPSTTQSIAVPASNSTPVQEQPTAQSDTYGQAASTLVSGSSIEQMVQQIMEMGGGSWDKETVTRALRAAYNNPERAVDYLYSGIPETVTIPATNLSGVGSGRELTAPPPSGGPNSSPLDLFPQEAVSDAAGGDLGTLEFLRGNDQFQQLRSMVNSNPQILQPMLQELGKQNPQLLRLIQENQAEFLQLLNEPYEGSDGDVDIFDQPDQEMPHSVNVTPEEQESIERLEAMGFDRAIVIEAFLSCDRNEELAANYLLEHSADFED
binding [2]: no binding

B2: RAD23B, endogenous in Arabidopsis (rad23CD double mutant) (protein, UniProt Q84L33 1-371)
chain: MKLTVKTLKGSHFEIRVLPSDTIMAVKKNIEDSQGKDNYPCGQQLLIHNGKVLKDETSLVENKVTEEGFLVVMLSKSKSGGSAGQASVQTSSVSQPVSATTSSTKPAAPSTTQSSPVPASPIPAQEQPAAQTDTYGQAASTLVSGSSLEQMVQQIMEMGGGSWDKETVTRALRAAYNNPERAVDYLYSGIPQTAEVAVPVPEAQIAGSGAAPVAPASGGPNSSPLDLFPQETVAAAGSGDLGTLEFLRNNDQFQQLRTMVHSNPQILQPMLQELGKQNPQLLRLIQENQAEFLQLVNEPYEGSDGEGDMFDQPEQEMPHAINVTPAEQEAIQRLEAMGFDRALVIEAFLACDRNEELAANYLLENSGDFED
binding [2]: no binding
